Results from article PMC8327742 (Haematologica, 2021).
Read-outs that look alike come from different tables or passages of the source.

Tests used:
[1] = test system: EBF1-PDGFRB; assay: viability assay of transformed Ba/F3 cells; type: cell-based, Homo sapiens; conditions: Ba/F3 cells with wild-type fusion; cell viability read-out
[2] = test system: EBF1-PDGFRB; conditions: Ba/F3 cells with mutant fusion; cell viability read-out; gatekeeper; stated gain

Structure (SMILES): Cc1ccc(NC(=O)c2ccc(CN3CCN(C)CC3)cc2)cc1Nc1nccc(-c2cccnc2)n1 [imatinib]
- IC50 [1]: 15.74 nM
- IC50 [2]: 602.5 nM
